For 59 compounds, cell number change and AC50 results are on record in PubChem BioAssay AID2685 (National Center for Advancing Translational Sciences (NCATS), 2010).

The nature of this assay: qHTS Assay for Lipid Storage Modulators in Drosophila S3 Cells.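 For cell number change: cells counted by Cell Tracker Red CMTPX staining in the red channel.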 The following applies: BODIPY lipid droplet fluorescence, 18-24 h; for cell number change: measured here: cell count max response, cells fed with added oleic acid. A digest of the protocol:
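Drosophila S3 cells loaded with oleic acid (400 uM, as added) and compounds at several concentrations; lipid droplets imaged by 488-nm laser-scanning cytometry, 500–530 nm intensity and object ratio to cell channel. Percent activity normalized to 20 uM Triacsin C.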
A general note: Quantitative high-throughput screening tests each substance at several concentrations.

[1] abbreviates: measured here: lipid fluorescence (Fed channel) AC50, cells fed with added oleic acid.
Where [2] appears, read: measured here: cell number channel AC50, cells fed with added oleic acid.

This is one part of the list. These are further read-outs of the screen, such as a control signal, another cell line or another target. No call is given for them. Most of these compounds were active or inconclusive in the main read-out, so they are no random draw. Potencies come from curve fits of mixed quality, noted in brackets.

As to `CCn1c(N2CCN(S(=O)(=O)c3ccc(F)cc3)CC2)nc2ccccc21`, the cell number change was -14%. For the same compound, under setting [1], the AC50 (usually the concentration giving half of the maximal activity seen) was 32.6 µM [falling, single point].

As to `CCOC(=O)C1=C(C)NC(=O)NC1/C=C\c1ccccc1` (centres undefined), the cell number change was determined as 9.82%. The AC50 under setting [1] is 6.51 µM [rising, single point].

As to `Cc1ccc2c(CN3CCCCC3)cc(=O)oc2c1`, the cell number change is -2.48%. Moreover, the AC50 under setting [1] is 25.9 µM [rising, partial curve, poor fit].

As for `CN1C(=O)[C@@H]2[C@H](C1=O)[C@@H]1C(=O)Nc3ccccc3C(=O)N1[C@@H]2c1cccc(Br)c1`, the cell number change was 16%. The AC50 under setting [1] is 23.1 µM [rising, single point].

In the case of `CCOC(=O)/C=C1\SCC(=O)N1CC(=O)NC(C)c1ccc(F)cc1` (centres undefined), the cell number change is 15.7%. In addition, under setting [1], the concentration at half-maximal activity (AC50) is 16.4 µM [rising, partial curve, poor fit].

Take `O=C(NC1CCCCC1)c1ccccc1NC(=O)C1CC(=O)N(c2ccccc2)C1` (centres undefined): the cell number change was -28.2%. Further, the AC50 under setting [1] was 29.1 µM [falling, single point].

Regarding `CCOC(=O)c1cnc2ccc(C)cc2c1N(C)Cc1ccccc1`, the cell number change was -53.1%. The AC50 under setting [2] is 20.6 µM [falling, single point]. Under setting [1], the AC50 is 1.03 µM [falling, full curve].

Regarding `COc1ccc(NC(=S)NCc2ccco2)cc1`, the cell number change is -2.45%.

Regarding `CCOc1ccc(N2CC(C(=O)N3CCc4ccccc4C3)CC2=O)cc1` (centres undefined), the cell number change stood at 7.57%. The AC50 under setting [1] is 29.1 µM [falling, single point].

Consider `Cn1c(-c2ccccc2)cnc1NCc1ccc(-c2ccccc2)cc1`, for which the cell number change is 12.3%.

Take `CC(=O)c1sc(NCc2ccccc2)nc1C`: the cell number change came to 12.5%. Further, under setting [1], the AC50 is 29.1 µM [rising, single point].

On to `Cc1ccc(NC(=O)COC(=O)CCc2ccc(S(=O)(=O)N3CCOCC3)cc2)cc1F`, for which the cell number change was -38.8%.

On to `NC(=O)C1(N2CCCCC2)CCN(C2CC(=O)N(CCc3ccccc3)C2=O)CC1` (centres undefined), for which the cell number change stood at 1.81%. The AC50 under setting [2] is 0.164 µM [falling, full curve, poor fit]. Also, under setting [1], the AC50 was 1.03 µM [falling, full curve].

Consider `COc1ccc(CN2CCN(C(=O)C3CCC(CNS(=O)(=O)c4ccccc4)CC3)CC2)c(OC)c1OC` (centres undefined), for which the cell number change was found to be 20.6%. Moreover, the AC50 under setting [1] was 18.4 µM [falling, single point].

`COc1ccc2nc(Nc3nc4cc5c(cc4s3)OCO5)sc2c1`: the AC50 under setting [1] was 3.26 µM [rising, single point].

As for `Cc1noc(C)c1COc1ccc(C(=O)OCC(=O)Nc2cccc(S(=O)(=O)N3CCOCC3)c2)cc1`, the cell number change is -31.3%. The AC50 under setting [2] was 0.0058 µM [falling, full curve, poor fit]. For the same compound, under setting [1], the concentration at half-maximal activity (AC50) is 0.82 µM [falling, full curve, poor fit].

Turning to `C/C(=N\NC(=O)c1ccc(CN(C)S(=O)(=O)c2ccc(C)cc2)cc1)c1ccc(OC(F)F)cc1`, the cell number change was -37.2%. Moreover, the AC50 under setting [2] was 16.4 µM [falling, single point]. Besides, the AC50 under setting [1] is 8.2 µM [falling, partial curve].

`CCC(=O)Nc1cc2c(C)cc(=O)oc2cc1C`: the AC50 was 0.651 µM [rising, partial curve] under setting [2] and 3.66 µM [rising, partial curve] under setting [1].

Consider `COc1cc2[nH]c(=S)nc(NCc3cccs3)c2cc1OC`, for which the cell number change was -31.4%. Also, the AC50 under setting [2] was 8.2 µM [falling, partial curve]. The AC50 under setting [1] was 29.1 µM [falling, single point].

Regarding `CC(=O)Nc1cccc(NS(=O)(=O)c2cccc3nsnc23)c1`, under setting [1], the AC50 is 5.8 µM [falling, single point].

Consider `CCN1CCN(C(=O)c2ccc3c(c2)N(Cc2ccc(C)cc2)CCS3)CC1`, for which the cell number change came to 9.48%. Also, the concentration at half-maximal activity (AC50) under setting [1] is 29.1 µM [rising, single point].

Consider `CC(=O)c1ccc(C(=O)NC2CCCN(Cc3ccc(Cl)cc3)C2)s1` (centres undefined), for which the cell number change stood at 19.7%.

Consider `COc1ccc(-c2cc(C(=O)NCc3ccco3)c3ccccc3n2)cc1`, for which the cell number change was -30.1%. The AC50 under setting [2] was 0.259 µM [falling, full curve, poor fit]. In addition, under setting [1], the AC50 was 29.1 µM [falling, single point].

On to `Cc1cc(Oc2ccc(Br)cc2)nc(SCC(=O)c2ccccc2)n1`, for which the cell number change worked out at 18%. The AC50 under setting [1] was 16.4 µM [rising, partial curve, poor fit].

Take `Cc1ccc(S(=O)(=O)Cc2cc(F)c([N+](=O)[O-])cc2[N+](=O)[O-])cc1`: the AC50 under setting [1] was 0.82 µM [falling, full curve].

Take `CCN(Cc1ccccc1)C(=O)C(=O)c1cn(CC(=O)N2CCCC2)c2ccccc12`: the cell number change was -10.4%.

As for `O=C(/C=C/Nc1ccc(Nc2ccccc2)cc1)c1cccs1`, the cell number change is -55.7%. For the same compound, the AC50 under setting [2] is 14.6 µM [falling, partial curve, poor fit]. For the same compound, the AC50 under setting [1] was 25.9 µM [falling, partial curve].

With `CNc1ccccc1C(=O)OC(C)C(=O)Nc1ccc(Cl)cn1` (centres undefined), the cell number change amounted to 6.93%. Besides, the AC50 under setting [1] is 6.51 µM [rising, single point].

Take `CC(NC(=S)NCc1ccc(F)cc1)C12CC3CC(CC(C3)C1)C2` (centres undefined): the cell number change is -29.8%. Further, the AC50 under setting [1] was 1.84 µM [falling, partial curve].

With `Cc1ccc(NC(=O)CSc2nc(=O)n(CCCN3CCOCC3)c3c2CCCC3)c(C)c1`, the cell number change is 60.6%. In addition, the AC50 under setting [2] is 14.6 µM [rising, single point].

For `CCn1c(SCc2nc3sc(C(=O)O)c(C)c3c(=O)[nH]2)nc2ccccc21`, the AC50 under setting [1] is 0.082 µM [falling, full curve].

As to `CC(C)[C@H]1C(=O)Nc2ccccc2N1C(=O)N[C@@H](Cc1ccccc1)C(=O)N[C@H](C(=O)O)c1ccccc1`, the cell number change came out at 14.2%. Further, the AC50 under setting [1] was 2.31 µM [rising, full curve, poor fit].

On to `COc1ccccc1NS(=O)(=O)c1ccc(Cl)c(NC(=S)NC(=O)C2CCCC2)c1`, for which the cell number change was -4.98%. Further, the AC50 under setting [1] was 29.1 µM [rising, single point].

Turning to `Cc1ccc(-c2nnc(SCC(=O)N/N=C/c3ccc(C)s3)n2-c2ccc(C)cc2)cc1`, the cell number change is 10.2%. In addition, the AC50 under setting [1] is 4.61 µM [rising, single point].

For `COc1ccc(-n2ccn(CC(=O)Nc3ccc(OC)cc3OC)c(=O)c2=O)cc1`, the cell number change was determined as 31.8%. For the same compound, under setting [2], the AC50 is 2.31 µM [rising, partial curve, poor fit]. Besides, the AC50 under setting [1] is 14.6 µM [rising, partial curve].

Regarding `COc1ccc(OC)c(NC(=O)C2CCC(CNc3c(N4CCC(C)CC4)c(=O)c3=O)CC2)c1` (centres undefined), the cell number change was -35.9%. Under setting [2], the AC50 is 9.2 µM [falling, single point].

Take `Cc1cc(C)c2sc(N(CCCN(C)C)C(=O)c3ccc(S(=O)(=O)N(C)C4CCCCC4)cc3)nc2c1`: the cell number change is -82.5%. Moreover, the AC50 under setting [2] was 16.4 µM [falling, partial curve]. Further, the AC50 under setting [1] was 2.06 µM [falling, partial curve, poor fit].

Consider `O=C(NN=C1CCCCCC1)NC1CCCCC1`, for which the cell number change amounted to 36.9%. Besides, under setting [2], the AC50 is 32.6 µM [rising, single point].

As to `Cn1c(C(=O)N(Cc2ccccc2)Cc2cccs2)cc2sccc21`, the cell number change is 3.24%.

For the compound `S=c1[nH]c2ccc(Cc3ccc4[nH]c(=S)[nH]c4c3)cc2[nH]1`, the cell number change was -29.1%. The AC50 under setting [1] was 0.58 µM [rising, single point].

`CC1Cc2cc(S(=O)(=O)NCCC(=O)NCc3ccc(F)cc3)ccc2N1C(=O)C1CC1` (centres undefined): the cell number change is -20.8%.

As for `COc1ccc(CN(C(=O)/C=C/C(=O)c2ccc(OC)cc2O)C(C(=O)NC2CCCCC2)c2ccncc2)cc1` (centres undefined), the cell number change came to 44.1%. Moreover, the AC50 under setting [2] was 29.1 µM [rising, single point].

On to `CC(=O)Nc1ccc(OC(=O)c2c(-c3ccccc3Cl)noc2C)cc1`, for which the cell number change stood at 40.2%. The AC50 under setting [2] was 5.8 µM [rising, partial curve].

Regarding `CCCC(=O)Nc1ccc2c(c1)nc(CN1CCN(C(=O)OCC)CC1)n2CC`, the cell number change was -12.8%.

As for `CCN1CCN(c2ccc(S(=O)(=O)N3CCOCC3)cc2NC(=O)COc2ccc(F)cc2Cl)CC1`, the cell number change is -9.96%. Also, the half-maximal activity concentration (AC50) under setting [1] is 16.4 µM [falling, single point].

Consider `O=C(Oc1cccnc1)c1ccc([N+](=O)[O-])cc1`, for which the cell number change is -11.4%. In addition, the AC50 under setting [1] was 0.231 µM [falling, partial curve, poor fit].

As to `COc1ccc(C(C)(C)C)cc1NC(=O)COC(=O)c1ncc(Cl)c(Cl)c1Cl`, the cell number change is -38%. The AC50 under setting [2] was 29.1 µM [falling, single point]. Further, the AC50 under setting [1] was 18.4 µM [falling, single point].

In the case of `COc1ccc(NC(=O)N2CCCC2C(=O)NCC2CCCCC2)cc1` (centres undefined), the cell number change is -9.68%.

As to `CN1CCN(CCOc2ccc(Cc3ccccc3)cc2)CC1`, the cell number change is -19.3%. Further, under setting [1], the AC50 is 7.31 µM [rising, partial curve, poor fit].

Consider `CC(CC(=O)NCc1ccc(Cl)cc1)c1ccccc1` (centres undefined), for which the cell number change was 4.4%. For the same compound, the AC50 under setting [1] was 29.1 µM [falling, single point].

As to `CCCOc1ccc2oc(=O)c3c(c2c1)CCCN3C(=O)CN1CCN(c2ncccn2)CC1`, the cell number change is 4.19%.

As for `O=C(c1cccs1)N1CCc2c([nH]c3ccccc23)C1c1ccc(Cl)cc1` (centres undefined), the cell number change worked out at 34.1%. Under setting [2], the AC50 was 29.1 µM [rising, single point]. The AC50 under setting [1] is 20.6 µM [rising, single point].

On to `Cc1cccc(N2CCN(C3=NC(=O)C(=C4CCCCC4)S3)CC2)c1`, for which the cell number change was -3.12%.

In the case of `Cc1cc(C)c(NC(=O)COC(=O)C2CCC(=O)N2)c(C)c1` (centres undefined), under setting [1], the half-maximal activity concentration (AC50) was 0.0058 µM [falling, full curve, poor fit].

Regarding `O=C(c1ccccc1F)N1CCN(c2ccccc2F)CC1`, the cell number change stood at 2.92%.

Consider `NC(=O)c1ccc(NC(=O)COC(=O)c2cccc(Oc3ccccc3)c2)cc1`, for which the cell number change was -34.1%. The AC50 under setting [2] was 1.16 µM [falling, full curve].

Regarding `Clc1ccc(COc2ccccc2CNCc2cccnc2)cc1`, the cell number change is 59.7%. Also, the half-maximal activity concentration (AC50) under setting [2] is 2.91 µM [rising, full curve, poor fit]. Besides, the AC50 under setting [1] was 0.82 µM [rising, partial curve].

As to `CCCCn1c(C(C)NC(=O)COC)nc2ccccc21` (centres undefined), the cell number change is 0.0283%. In addition, under setting [1], the AC50 is 2.31 µM [rising, partial curve].

For the compound `COc1ccccc1CNC(=O)c1nnc(Cc2ccc(Cl)cc2)o1`, the cell number change came to 17%. Moreover, the AC50 under setting [2] was 0.164 µM [rising, full curve, poor fit]. Besides, the AC50 under setting [1] is 29.1 µM [rising, single point].
